Source: doi:10.1371/journal.pone.0140310, primary screening data, rounded.

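Human melanoma cell lines in 1,536-well plates were treated with two drugs together for 72 h, then fixed, stained and imaged. The read-out is cell count (nuclei) in % of the DMSO control; lower values mean stronger growth inhibition or killing. Concentrations were fixed for each drug; these are the higher of two levels. No replicate spread is given; individual values may be noisy.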
This is part of the screen, not chosen by result.

Drug key:
GW9662: O=C(Nc1ccccc1)c1cc([N+](=O)[O-])ccc1Cl at 10000 nM
darinaparsin: C[As](C)SC[C@H](NC(=O)CC[C@H](N)C(=O)O)C(=O)NCC(=O)O at 2000 nM
NVP-BEZ235: Cn1c(=O)n(-c2ccc(C(C)(C)C#N)cc2)c2c3cc(-c4cnc5ccccc5c4)ccc3ncc21 at 20 nM
RKI-983: C[C@@H](N)c1ccc(C(=O)Nc2ccnc3[nH]ccc23)cc1 at 2000 nM
JZL184: O=C(Oc1ccc([N+](=O)[O-])cc1)N1CCC(C(O)(c2ccc3c(c2)OCO3)c2ccc3c(c2)OCO3)CC1 at 5000 nM
etoposide: COc1cc([C@@H]2c3cc4c(cc3[C@@H](O[C@@H]3O[C@@H]5CO[C@@H](C)O[C@H]5[C@H](O)[C@H]3O)[C@H]3COC(=O)[C@H]23)OCO4)cc(OC)c1O at 100 nM
lestaurtinib: C[C@]12O[C@H](C[C@]1(O)CO)n1c3ccccc3c3c4c(c5c6ccccc6n2c5c31)CNC4=O at 20 nM
T0901317: O=S(=O)(c1ccccc1)N(CC(F)(F)F)c1ccc(C(O)(C(F)(F)F)C(F)(F)F)cc1 at 7000 nM
dorsomorphin: c1cc(-c2cnn3cc(-c4ccc(OCCN5CCCCC5)cc4)cnc23)ccn1 at 2000 nM
Src-I1: COc1cc2ncnc(Nc3ccc(Oc4ccccc4)cc3)c2cc1OC at 10000 nM
temozolomide: Cn1nnc2c(C(N)=O)ncn2c1=O at 10000 nM
nilotinib: Cc1cn(-c2cc(NC(=O)c3ccc(C)c(Nc4nccc(-c5cccnc5)n4)c3)cc(C(F)(F)F)c2)cn1 at 1000 nM
vorinostat: O=C(CCCCCCC(=O)Nc1ccccc1)NO at 400 nM
L-779450: Oc1cc(-c2nc(-c3ccccc3)[nH]c2-c2ccncc2)ccc1Cl at 1000 nM
ENMD-2076: Cc1cc(Nc2cc(N3CCN(C)CC3)nc(/C=C/c3ccccc3)n2)n[nH]1 at 200 nM
erlotinib: C#Cc1cccc(Nc2ncnc3cc(OCCOC)c(OCCOC)cc23)c1 at 4000 nM
sorafenib: CNC(=O)c1cc(Oc2ccc(NC(=O)Nc3ccc(Cl)c(C(F)(F)F)c3)cc2)ccn1 at 2000 nM
cediranib: COc1cc2c(Oc3ccc4[nH]c(C)cc4c3F)ncnc2cc1OCCCN1CCCC1 at 2000 nM
LFM-A13: C/C(O)=C(\C#N)C(=O)Nc1cc(Br)ccc1Br at 10000 nM

Results for NVP-BEZ235 + temozolomide are COLO 800: 72.1; C32: 95.9; WM451Lu: 87.4; WM3619: 84.7; COLO 829: 61.0; COLO 792: 51.9. For LFM-A13 + Src-I1 the values were COLO 800: 83.8; C32: 114; WM451Lu: 89.0; WM3619: 88.0; COLO 829: 135; COLO 792: 90.5. For T0901317 + NVP-BEZ235 the values were COLO 800: 57.8; C32: 86.9; WM451Lu: 87.0; WM3619: 72.5; COLO 829: 76.9; COLO 792: 49.5. For darinaparsin + dorsomorphin the values were COLO 800: 74.2; C32: 58.3; WM451Lu: 44.5; WM3619: 61.8; COLO 829: 67.2; COLO 792: 57.1. Results for T0901317 + temozolomide are COLO 800: 86.9; C32: 92.6; WM451Lu: 91.8; WM3619: 101; COLO 829: 75.3; COLO 792: 100.

With RKI-983 + LFM-A13 the screen read COLO 800: 52.4; C32: 72.3; WM451Lu: 86.9; WM3619: 106; COLO 829: 80.0; COLO 792: 78.9. For erlotinib + LFM-A13 the values were COLO 800: 65.1; C32: 99.7; WM451Lu: 98.6; WM3619: 75.2; COLO 829: 67.3; COLO 792: 44.5. For JZL184 + RKI-983 the values were COLO 800: 124; C32: 61.2; WM451Lu: 91.4; WM3619: 80.5; COLO 829: 93.1; COLO 792: 80.4. With JZL184 + ENMD-2076 the screen read COLO 800: 47.3; C32: 79.0; WM451Lu: 80.1; WM3619: 80.4; COLO 829: 75.3; COLO 792: 77.0. With etoposide + temozolomide the screen read COLO 800: 98.1; C32: 92.4; WM451Lu: 101; WM3619: 93.2; COLO 829: 95.3; COLO 792: 96.1.

For cediranib + NVP-BEZ235 the values were COLO 800: 54.7; C32: 66.5; WM451Lu: 67.9; WM3619: 69.5; COLO 829: 75.6; COLO 792: 53.8. With lestaurtinib + ENMD-2076 the screen read COLO 800: 63.0; C32: 102; WM451Lu: 109; WM3619: 72.2; COLO 829: 77.7; COLO 792: 41.9. cediranib + T0901317 gave COLO 800: 54.1; C32: 74.9; WM451Lu: 89.6; WM3619: 94.1; COLO 829: 84.7; COLO 792: 89.4. Results for sorafenib + dorsomorphin are COLO 800: 101; C32: 58.2; WM451Lu: 73.1; WM3619: 101; COLO 829: 66.2; COLO 792: 79.2. Results for etoposide + nilotinib are COLO 800: 78.6; C32: 87.0; WM451Lu: 113; WM3619: 79.9; COLO 829: 95.2; COLO 792: 84.7.

For dorsomorphin + erlotinib the values were COLO 800: 64.9; C32: 55.0; WM451Lu: 61.1; WM3619: 70.0; COLO 829: 80.3; COLO 792: 48.7. sorafenib + etoposide gave COLO 800: 125; C32: 108; WM451Lu: 111; WM3619: 66.2; COLO 829: 132; COLO 792: 113. For vorinostat + LFM-A13 the values were COLO 800: 76.0; C32: 113; WM451Lu: 79.3; WM3619: 70.2; COLO 829: 85.2; COLO 792: 80.5. Results for Src-I1 + ENMD-2076 are COLO 800: 118; C32: 102; WM451Lu: 71.2; WM3619: 56.3; COLO 829: 103; COLO 792: 99.5. For lestaurtinib + temozolomide the values were COLO 800: 80.1; C32: 97.3; WM451Lu: 103; WM3619: 84.5; COLO 829: 85.7; COLO 792: 48.2.

Results for L-779450 + ENMD-2076 are COLO 800: 58.4; C32: 53.7; WM451Lu: 59.4; WM3619: 71.7; COLO 829: 64.9; COLO 792: 80.6. With temozolomide + nilotinib the screen read COLO 800: 66.4; C32: 98.5; WM451Lu: 103; WM3619: 75.9; COLO 829: 97.9; COLO 792: 64.2. With darinaparsin + RKI-983 the screen read COLO 800: 84.5; C32: 67.5; WM451Lu: 77.8; WM3619: 76.9; COLO 829: 105; COLO 792: 87.0. For LFM-A13 + L-779450 the values were COLO 800: 62.2; C32: 100; WM451Lu: 59.6; WM3619: 61.3; COLO 829: 77.2; COLO 792: 115. GW9662 + Src-I1 gave COLO 800: 40.3; C32: 102; WM451Lu: 55.7; WM3619: 65.9; COLO 829: 89.4; COLO 792: 63.8.

Results for ENMD-2076 + dorsomorphin are COLO 800: 119; C32: 69.0; WM451Lu: 55.5; WM3619: 77.2; COLO 829: 68.4; COLO 792: 48.1. vorinostat + GW9662 gave COLO 800: 40.5; C32: 92.2; WM451Lu: 82.9; WM3619: 56.3; COLO 829: 55.6; COLO 792: 88.6.

The last 3 entries again:

* GW9662 + Src-I1 | COLO 800: 40.3; C32: 102; WM451Lu: 55.7; WM3619: 65.9; COLO 829: 89.4; COLO 792: 63.8
* ENMD-2076 + dorsomorphin | COLO 800: 119; C32: 69.0; WM451Lu: 55.5; WM3619: 77.2; COLO 829: 68.4; COLO 792: 48.1
* vorinostat + GW9662 | COLO 800: 40.5; C32: 92.2; WM451Lu: 82.9; WM3619: 56.3; COLO 829: 55.6; COLO 792: 88.6